Source: US20230211005A1
Results are given in words; binding and its absence hold for the method and conditions named. Some binding calls cover weakened binding; strength is not graded here.

T1: Zinc transporter ZIP4 (human) (UniProt Q6P5W5)
T1 sequence (looked up): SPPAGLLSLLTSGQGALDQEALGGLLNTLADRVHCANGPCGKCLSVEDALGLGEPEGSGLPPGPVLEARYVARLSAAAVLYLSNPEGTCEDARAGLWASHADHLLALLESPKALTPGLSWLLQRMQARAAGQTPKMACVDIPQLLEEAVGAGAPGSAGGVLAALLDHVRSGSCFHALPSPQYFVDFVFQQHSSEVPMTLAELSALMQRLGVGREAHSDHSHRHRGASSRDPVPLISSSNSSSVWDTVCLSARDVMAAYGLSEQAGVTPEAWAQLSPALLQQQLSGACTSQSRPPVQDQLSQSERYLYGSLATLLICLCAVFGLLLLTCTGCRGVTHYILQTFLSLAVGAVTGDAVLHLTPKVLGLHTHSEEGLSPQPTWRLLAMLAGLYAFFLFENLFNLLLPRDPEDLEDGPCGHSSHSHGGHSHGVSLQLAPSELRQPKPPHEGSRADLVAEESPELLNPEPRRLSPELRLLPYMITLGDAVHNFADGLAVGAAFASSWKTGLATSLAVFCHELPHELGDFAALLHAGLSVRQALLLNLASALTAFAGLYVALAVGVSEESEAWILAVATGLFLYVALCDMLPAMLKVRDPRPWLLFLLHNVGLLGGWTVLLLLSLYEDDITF


Tests used:
[1] = target: T1, Zinc transporter ZIP4 (human); assay: surface immunostaining of live Zip4-RWP1 cells, 50 ug/ml antibody, 1 h at 37 C, confocal microscopy
[2] = target: T1, Zinc transporter ZIP4 (human); assay: western blot and surface immunostaining, Zip4 expressing RWP1 cells (figure legend)
[3] = target: T1, Zinc transporter ZIP4 (human); assay: western blot, lysates of Zip4-RWP1 cells vs control RWP1 cells

binding [1] | binding [2] | binding [3] | Binder
binds | binds | binds | Antibody 1 (clone 33), monoclonal antibody anti Zip4 (antibody, V domains shown) VH: EVKLQESGPSLVKPSQSLSLTCSVTGYSITSAYYWNWIRQFPGNKLEWMGYIAYDGGNNYNPSLKNRISITRDTSKNQFFLKLNSVTTEDTATYYCVRDWSRAMDYWGQGTSVTVSS VL: DIMLTQSPLSLPVSLGDQASISCRSSQSLVHSTGNTYLHWYLQKPGQSPKLLIYKVSSRFSGVPDRFSGSGSGTDFTLRISRVEADDLGVYFCSQTTHVPLTFGAGTKLELK
binds | binds | binds | Antibody 2 (clone 62), monoclonal antibody anti Zip4 (antibody, V domains shown) VH: EVKLQESGPSLVKPSQSLSLTCSVTGYSITSAYYWNWIRQFPGNKLEWMGYIAYDGGNNYNPSLKNRISITRDTSKNQFFLKLNSVTTEDTATYYCVRDWSRAMDYWGQGTSVTVSS VL: DIVLTQSPAIMSASPGEKVTITCSASSSVSYLHWFQQKPGTSPKLWIYSTSNLASGVPARFSASGSGTSYSLTISRMEAEDAATYYCQQRSTYPLTFGGGTKLELK
